Data on one molecule can be found in patent publication US20040053206A1 (DYAX, published 2004).

The test deals with kallikrein (Homo sapiens (Human)). Kind of test: phage display selection.

No constants are given. Whether binding was seen depends on the method and setting. Binding calls can cover weak binding; strength is not graded here.

B1: PEP-1 KI polypeptide (designed binder)
chain: EAMHSFCAFKADDGPCRAAHPRWFFNIFTRQCEEFIYGGCEGNQNRFESLEECKKMCTRD
notes: also called DX88
Consider B1, for which the binding entry was “binds”.
